Test results taken from patent US6238904.

Tested on: HpyCH4III restriction endonuclease (Helicobacter pylori CH4 (NEB#1236))
Test: enzyme reaction in vitro
Settings: primer extension product of pNEB193, 37 C 1 h, about 0.5 unit enzyme; purified native protein; label: 33P; only the motif is given; variant of HpyCH4III recognition site ACNGT

## ACTGT (double strand) [pNEB193 polylinker HpyCH4III site at position 453 (N = T)]
  activity on this sequence: active

The exact form of at least one protein or probe is not confirmed.
